Assay results as given in paper doi:10.1101/2021.08.25.457671.
Substitutions are numbered along the chain they refer to. Results are given in words; binding and its absence hold for the method and conditions named. Binding seen in cells or lysates may run through a third protein. Some results given as binding are weak or reduced against the parent protein; the word gives no strength. For part of these data: Where a sequence is shown, tags or fusion partners need not be part of it.

Amino acid sequences for entries named in this document (tags omitted). A change or cut given only in a name is not applied to a line headed by its entry.
UniProt P54198, whole entry: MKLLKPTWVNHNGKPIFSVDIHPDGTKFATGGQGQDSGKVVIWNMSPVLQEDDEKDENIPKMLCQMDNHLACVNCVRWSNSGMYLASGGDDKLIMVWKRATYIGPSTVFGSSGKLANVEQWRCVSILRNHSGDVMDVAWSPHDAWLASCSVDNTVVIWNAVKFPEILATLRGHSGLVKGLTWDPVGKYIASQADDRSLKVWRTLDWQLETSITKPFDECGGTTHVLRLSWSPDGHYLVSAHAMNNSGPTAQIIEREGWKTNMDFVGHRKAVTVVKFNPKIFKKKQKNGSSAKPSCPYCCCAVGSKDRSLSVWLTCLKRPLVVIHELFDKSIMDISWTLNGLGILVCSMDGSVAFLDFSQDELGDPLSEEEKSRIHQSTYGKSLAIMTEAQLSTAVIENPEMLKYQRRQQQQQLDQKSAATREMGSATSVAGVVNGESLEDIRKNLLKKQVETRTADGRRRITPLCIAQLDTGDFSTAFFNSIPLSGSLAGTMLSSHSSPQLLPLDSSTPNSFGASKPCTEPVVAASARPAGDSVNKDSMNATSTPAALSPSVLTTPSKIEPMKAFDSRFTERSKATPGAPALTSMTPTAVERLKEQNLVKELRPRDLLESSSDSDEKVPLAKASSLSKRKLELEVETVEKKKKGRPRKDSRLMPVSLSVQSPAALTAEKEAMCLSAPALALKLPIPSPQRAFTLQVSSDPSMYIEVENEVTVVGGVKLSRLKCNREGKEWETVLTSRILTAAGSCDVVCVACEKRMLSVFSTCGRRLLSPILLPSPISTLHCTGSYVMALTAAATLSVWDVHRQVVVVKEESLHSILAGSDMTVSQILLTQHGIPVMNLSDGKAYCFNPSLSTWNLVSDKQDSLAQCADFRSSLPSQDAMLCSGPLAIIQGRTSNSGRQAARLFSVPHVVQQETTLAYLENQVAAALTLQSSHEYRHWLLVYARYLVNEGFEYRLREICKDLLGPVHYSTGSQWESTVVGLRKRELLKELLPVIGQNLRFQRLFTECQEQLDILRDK
UniProt Q9H081, whole entry: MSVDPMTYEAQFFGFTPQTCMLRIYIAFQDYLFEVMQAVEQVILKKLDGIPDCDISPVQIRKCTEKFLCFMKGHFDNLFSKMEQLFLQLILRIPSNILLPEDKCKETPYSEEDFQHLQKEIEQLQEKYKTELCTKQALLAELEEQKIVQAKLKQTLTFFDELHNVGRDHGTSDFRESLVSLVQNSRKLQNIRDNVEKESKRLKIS
UniProt P11142, whole entry: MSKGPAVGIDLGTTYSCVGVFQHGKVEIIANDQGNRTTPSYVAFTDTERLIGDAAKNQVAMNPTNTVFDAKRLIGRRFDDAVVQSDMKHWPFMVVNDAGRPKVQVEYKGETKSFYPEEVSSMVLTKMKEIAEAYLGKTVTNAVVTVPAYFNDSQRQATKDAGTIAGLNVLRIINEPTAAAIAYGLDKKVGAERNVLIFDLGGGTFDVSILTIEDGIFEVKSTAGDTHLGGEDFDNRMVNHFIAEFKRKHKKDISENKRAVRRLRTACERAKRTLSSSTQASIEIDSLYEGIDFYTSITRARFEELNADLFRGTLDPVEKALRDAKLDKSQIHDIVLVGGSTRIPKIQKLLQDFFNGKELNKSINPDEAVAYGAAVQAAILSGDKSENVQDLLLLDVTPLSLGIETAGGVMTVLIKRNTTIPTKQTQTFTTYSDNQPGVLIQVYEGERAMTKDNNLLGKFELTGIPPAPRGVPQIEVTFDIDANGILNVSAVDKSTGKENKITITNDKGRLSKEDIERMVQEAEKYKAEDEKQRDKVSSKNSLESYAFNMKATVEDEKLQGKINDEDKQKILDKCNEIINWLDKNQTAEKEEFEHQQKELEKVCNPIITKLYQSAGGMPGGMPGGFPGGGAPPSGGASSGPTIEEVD
UniProt Q92598, whole entry: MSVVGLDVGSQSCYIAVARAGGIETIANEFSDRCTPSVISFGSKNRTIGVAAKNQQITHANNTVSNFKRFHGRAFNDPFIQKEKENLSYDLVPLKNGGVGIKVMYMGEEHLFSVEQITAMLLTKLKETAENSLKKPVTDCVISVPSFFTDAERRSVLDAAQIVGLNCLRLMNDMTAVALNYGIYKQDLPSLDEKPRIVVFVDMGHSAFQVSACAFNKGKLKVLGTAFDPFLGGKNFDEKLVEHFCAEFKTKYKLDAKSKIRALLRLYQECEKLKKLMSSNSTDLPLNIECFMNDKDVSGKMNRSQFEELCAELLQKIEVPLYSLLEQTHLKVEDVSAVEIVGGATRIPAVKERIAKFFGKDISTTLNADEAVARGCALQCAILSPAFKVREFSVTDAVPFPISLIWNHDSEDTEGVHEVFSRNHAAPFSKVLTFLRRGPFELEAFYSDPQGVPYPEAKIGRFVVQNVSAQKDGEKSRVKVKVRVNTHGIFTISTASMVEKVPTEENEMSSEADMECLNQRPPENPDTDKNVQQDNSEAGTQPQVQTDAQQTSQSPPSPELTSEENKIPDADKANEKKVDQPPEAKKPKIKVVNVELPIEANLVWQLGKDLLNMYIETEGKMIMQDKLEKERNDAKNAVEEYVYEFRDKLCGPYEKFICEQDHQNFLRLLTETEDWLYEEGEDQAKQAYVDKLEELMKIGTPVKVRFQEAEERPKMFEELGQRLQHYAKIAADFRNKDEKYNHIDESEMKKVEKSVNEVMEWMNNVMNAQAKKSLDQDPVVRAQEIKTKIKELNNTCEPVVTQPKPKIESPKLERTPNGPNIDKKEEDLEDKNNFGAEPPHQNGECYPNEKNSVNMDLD
UniProt P25491, whole entry: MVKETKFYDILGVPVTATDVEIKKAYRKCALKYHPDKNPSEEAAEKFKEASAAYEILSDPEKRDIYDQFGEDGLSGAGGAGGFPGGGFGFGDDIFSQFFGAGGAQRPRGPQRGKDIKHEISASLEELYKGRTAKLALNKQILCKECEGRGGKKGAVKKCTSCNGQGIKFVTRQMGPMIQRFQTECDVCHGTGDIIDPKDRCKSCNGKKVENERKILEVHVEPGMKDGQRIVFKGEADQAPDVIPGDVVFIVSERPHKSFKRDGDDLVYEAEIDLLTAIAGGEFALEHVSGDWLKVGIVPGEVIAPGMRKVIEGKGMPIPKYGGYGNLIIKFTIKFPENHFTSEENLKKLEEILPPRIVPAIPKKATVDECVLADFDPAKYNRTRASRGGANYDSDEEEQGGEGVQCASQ

How the values were obtained:
[1] = biological target: HIS-tagged Ssa1 (budding yeast) (UniProt P10591); assay: cross-linking
HA-HIRA (human) = HA-HIRA (human) (UniProt P54198); assay: co-IP
Mis12 = Mis12 (UniProt Q9H081); assay: co-IP
mammalian Lonp-1 = biological target: T1, mammalian Lonp-1 (UniProt P36776); assay: co-IP
T1 sequence: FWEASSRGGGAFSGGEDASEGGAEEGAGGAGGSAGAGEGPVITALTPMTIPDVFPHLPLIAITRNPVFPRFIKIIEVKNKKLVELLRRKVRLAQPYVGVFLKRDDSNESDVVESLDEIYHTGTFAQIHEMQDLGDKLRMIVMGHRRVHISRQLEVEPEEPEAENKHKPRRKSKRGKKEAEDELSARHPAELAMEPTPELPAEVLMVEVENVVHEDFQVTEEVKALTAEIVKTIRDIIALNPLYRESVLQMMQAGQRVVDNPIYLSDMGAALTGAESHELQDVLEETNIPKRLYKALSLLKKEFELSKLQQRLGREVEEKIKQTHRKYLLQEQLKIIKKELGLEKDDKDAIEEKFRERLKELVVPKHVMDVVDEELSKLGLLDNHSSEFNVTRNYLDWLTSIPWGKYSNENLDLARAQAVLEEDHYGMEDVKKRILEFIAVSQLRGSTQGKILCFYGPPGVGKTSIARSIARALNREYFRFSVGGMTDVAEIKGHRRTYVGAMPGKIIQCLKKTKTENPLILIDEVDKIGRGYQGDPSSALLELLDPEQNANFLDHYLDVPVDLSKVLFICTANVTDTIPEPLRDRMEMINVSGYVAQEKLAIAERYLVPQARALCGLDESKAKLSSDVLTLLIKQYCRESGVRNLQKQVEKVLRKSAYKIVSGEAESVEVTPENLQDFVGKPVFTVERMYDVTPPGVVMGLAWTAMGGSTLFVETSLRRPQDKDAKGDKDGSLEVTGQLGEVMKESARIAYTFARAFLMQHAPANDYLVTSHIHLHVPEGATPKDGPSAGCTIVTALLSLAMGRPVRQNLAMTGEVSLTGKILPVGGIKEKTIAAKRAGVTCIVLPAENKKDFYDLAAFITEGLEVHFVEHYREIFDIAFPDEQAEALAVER

[2] = biological target: T2, HA-tagged Ura8 (budding yeast) (UniProt P38627); assay: co-IP
T2 sequence: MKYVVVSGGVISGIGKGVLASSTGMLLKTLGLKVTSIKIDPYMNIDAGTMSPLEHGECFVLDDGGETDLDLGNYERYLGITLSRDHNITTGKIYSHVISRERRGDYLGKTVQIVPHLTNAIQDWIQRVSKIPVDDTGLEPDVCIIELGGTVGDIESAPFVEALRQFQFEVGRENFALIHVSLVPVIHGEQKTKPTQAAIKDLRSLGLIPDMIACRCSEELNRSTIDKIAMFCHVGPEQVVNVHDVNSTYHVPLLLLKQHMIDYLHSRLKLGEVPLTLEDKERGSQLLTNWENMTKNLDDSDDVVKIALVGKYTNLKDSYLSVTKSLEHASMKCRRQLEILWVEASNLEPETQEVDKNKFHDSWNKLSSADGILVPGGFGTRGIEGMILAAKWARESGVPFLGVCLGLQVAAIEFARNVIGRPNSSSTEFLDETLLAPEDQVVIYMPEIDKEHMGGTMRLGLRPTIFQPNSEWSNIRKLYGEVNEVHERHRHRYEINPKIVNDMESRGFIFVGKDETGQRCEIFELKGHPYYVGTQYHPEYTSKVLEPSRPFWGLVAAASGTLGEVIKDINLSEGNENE

[3] = biological target: HA-tagged Cct8 (budding yeast) (UniProt P47079); assay: co-IP
[4] = biological target: T3, Mtw1 (bait of the co-IP in yeast) (budding yeast) (UniProt P39731); assay: co-IP
T3 sequence: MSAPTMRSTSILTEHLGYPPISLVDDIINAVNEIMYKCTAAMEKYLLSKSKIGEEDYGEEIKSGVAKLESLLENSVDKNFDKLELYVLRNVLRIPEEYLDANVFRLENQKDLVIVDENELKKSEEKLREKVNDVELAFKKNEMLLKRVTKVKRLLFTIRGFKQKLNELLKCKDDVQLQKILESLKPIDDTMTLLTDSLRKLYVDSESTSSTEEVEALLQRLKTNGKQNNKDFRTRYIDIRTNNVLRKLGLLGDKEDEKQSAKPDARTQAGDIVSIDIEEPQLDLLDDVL

[5] = biological target: T4, HA-tagged Pcl7 (budding yeast) (UniProt P40186); assay: co-IP
T4 sequence: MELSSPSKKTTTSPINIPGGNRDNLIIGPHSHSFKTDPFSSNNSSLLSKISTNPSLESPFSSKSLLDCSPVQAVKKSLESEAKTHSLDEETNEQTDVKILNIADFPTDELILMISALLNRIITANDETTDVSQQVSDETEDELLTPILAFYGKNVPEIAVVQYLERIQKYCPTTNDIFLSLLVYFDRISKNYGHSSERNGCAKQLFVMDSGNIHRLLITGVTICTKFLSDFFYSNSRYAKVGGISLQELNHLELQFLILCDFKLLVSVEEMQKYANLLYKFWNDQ

[6] = biological target: T5, HA-tagged Sse1 (budding yeast) (UniProt P32589); assay: co-IP
T5 sequence: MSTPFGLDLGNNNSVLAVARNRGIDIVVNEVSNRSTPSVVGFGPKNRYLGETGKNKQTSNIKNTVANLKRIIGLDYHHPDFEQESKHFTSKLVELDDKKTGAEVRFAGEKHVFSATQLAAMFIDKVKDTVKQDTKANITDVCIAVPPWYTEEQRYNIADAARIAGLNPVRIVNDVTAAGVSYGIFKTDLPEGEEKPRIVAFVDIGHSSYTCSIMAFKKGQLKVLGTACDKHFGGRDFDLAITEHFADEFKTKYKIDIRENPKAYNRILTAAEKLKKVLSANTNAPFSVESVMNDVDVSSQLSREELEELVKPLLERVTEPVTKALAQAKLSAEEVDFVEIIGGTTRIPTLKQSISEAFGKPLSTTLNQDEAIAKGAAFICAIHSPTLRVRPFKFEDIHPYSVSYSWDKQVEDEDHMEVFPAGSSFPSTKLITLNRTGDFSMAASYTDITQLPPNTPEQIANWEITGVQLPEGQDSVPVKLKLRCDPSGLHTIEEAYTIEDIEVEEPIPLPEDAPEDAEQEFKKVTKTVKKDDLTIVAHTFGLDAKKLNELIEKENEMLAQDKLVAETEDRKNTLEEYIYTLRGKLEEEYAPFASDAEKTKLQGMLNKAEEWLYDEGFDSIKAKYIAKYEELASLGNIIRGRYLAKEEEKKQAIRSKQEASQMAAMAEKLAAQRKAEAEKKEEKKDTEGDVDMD

Hir2 (budding yeast) = Hir2 (budding yeast) (UniProt P32480); assay: co-IP
[7] = biological target: FLAG-Ssa1 V435F (substrate-binding deficient mutant) (budding yeast) (UniProt P10591); assay: co-IP
[8] = biological target: Ssa1, FLAG-tagged and HA-tagged constructs expressed together in yeast (budding yeast) (UniProt P10591); assay: co-IP
[9] = biological target: T6, Ste11 R305A (non-methylatable mutant) (budding yeast) (UniProt P23561); assay: co-IP
T6 sequence: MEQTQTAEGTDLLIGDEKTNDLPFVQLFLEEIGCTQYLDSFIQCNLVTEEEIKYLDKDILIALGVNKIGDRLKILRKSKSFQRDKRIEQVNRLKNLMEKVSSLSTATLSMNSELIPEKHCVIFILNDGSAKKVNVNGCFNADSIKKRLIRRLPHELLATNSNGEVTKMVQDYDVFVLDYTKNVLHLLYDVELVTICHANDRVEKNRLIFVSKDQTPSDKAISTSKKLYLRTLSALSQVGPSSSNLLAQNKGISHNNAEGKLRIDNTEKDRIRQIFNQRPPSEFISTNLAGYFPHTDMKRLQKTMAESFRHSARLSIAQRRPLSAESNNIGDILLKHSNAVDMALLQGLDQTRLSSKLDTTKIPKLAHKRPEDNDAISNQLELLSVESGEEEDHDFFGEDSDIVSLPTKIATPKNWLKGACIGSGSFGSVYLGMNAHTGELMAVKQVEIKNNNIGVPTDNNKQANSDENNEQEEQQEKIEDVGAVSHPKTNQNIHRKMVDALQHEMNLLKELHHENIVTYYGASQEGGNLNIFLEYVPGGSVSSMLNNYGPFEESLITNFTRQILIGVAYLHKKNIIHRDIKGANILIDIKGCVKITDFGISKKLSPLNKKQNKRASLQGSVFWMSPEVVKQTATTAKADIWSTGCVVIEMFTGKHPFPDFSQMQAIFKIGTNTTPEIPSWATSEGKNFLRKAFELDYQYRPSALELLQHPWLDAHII

[10] = biological target: T7, Ste11 (immunoprecipitated from yeast) (budding yeast) (UniProt P23561); assay: co-IP
T7 sequence: T6 sequence with A305R

Measured: binding

Cct8 found by mass spectrometry with HIS-Ssa1 (from UniProt P47079 1-568)
binds: [1]

DNAJA1 (from UniProt P31689 1-397)
binds: HA-HIRA (human) | Mis12 | mammalian Lonp-1

Hir2 (from UniProt P32480 1-875)
binds: [1]

Hsc70 (from UniProt P11142 1-646)
binds: HA-HIRA (human) | Mis12 | mammalian Lonp-1

Hsp82 (from UniProt P02829 1-709)
binds: [2] | [3] | [4] | [5] | [6] | Hir2 (budding yeast)

Hsp110 (from UniProt Q92598 1-858)
binds: HA-HIRA (human) | Mis12

Ssa1, FLAG-tagged and HA-tagged constructs expressed together in yeast (from UniProt P10591 1-642)
binds: [7]

Ydj1 (from UniProt P25491 1-409)
not listed: [1] | HA-HIRA (human) | Mis12 | mammalian Lonp-1
binds: all other assays above
